Test results reported in PMC4741437.

Sequences of proteins named here, by UniProt entry; tags and fusion partners are left off. A change or cut given only in a name is not applied to a line headed by its entry. Residues count along the entry.
UniProt P13385, residues 31-150: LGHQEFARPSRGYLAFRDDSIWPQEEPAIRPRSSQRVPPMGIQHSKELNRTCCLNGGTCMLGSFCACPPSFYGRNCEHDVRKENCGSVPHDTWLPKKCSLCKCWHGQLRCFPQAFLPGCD
UniProt Q96S42: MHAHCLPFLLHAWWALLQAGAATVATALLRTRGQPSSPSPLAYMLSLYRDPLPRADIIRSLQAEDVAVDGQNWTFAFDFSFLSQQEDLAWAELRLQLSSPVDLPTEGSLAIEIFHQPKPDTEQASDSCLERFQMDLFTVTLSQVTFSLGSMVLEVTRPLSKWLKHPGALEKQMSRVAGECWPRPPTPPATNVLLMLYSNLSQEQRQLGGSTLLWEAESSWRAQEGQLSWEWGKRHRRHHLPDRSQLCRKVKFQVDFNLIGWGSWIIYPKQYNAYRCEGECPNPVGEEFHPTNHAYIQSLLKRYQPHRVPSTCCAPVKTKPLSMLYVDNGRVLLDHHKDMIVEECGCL

Target: Recombinant human Cripto-1 (human) (UniProt P13385)
Test: SPR; rhCripto-1 amine-coupled on a CM5 chip (600 RU); rhNodal at 5 nM in HBS injected, alone or after 30 min pre-incubation with 3D1 mAb at 1:0.5, 1:1 and 1:2 molar ratio; 25°C, HBS (20 mM HEPES, 0.15 M NaCl, pH 7.2, 0.005% P20), 20 uL/min; both purified

Recombinant human Nodal (from UniProt Q96S42) (ligand)
binding: binds

These are yes or no findings as the source states them, for the method shown. A result given as binding can be weak or reduced; the word gives no strength.
